Test results reported in patent US20170210777A1.
No constants are given. Whether binding was seen depends on the method and setting. Some binding calls cover weakened binding; strength is not graded here.

Protein sequences, listed by entry. Tags and fused reporters are not part of them. Residues count along the entry.
UniProt P02769, residues 25-607: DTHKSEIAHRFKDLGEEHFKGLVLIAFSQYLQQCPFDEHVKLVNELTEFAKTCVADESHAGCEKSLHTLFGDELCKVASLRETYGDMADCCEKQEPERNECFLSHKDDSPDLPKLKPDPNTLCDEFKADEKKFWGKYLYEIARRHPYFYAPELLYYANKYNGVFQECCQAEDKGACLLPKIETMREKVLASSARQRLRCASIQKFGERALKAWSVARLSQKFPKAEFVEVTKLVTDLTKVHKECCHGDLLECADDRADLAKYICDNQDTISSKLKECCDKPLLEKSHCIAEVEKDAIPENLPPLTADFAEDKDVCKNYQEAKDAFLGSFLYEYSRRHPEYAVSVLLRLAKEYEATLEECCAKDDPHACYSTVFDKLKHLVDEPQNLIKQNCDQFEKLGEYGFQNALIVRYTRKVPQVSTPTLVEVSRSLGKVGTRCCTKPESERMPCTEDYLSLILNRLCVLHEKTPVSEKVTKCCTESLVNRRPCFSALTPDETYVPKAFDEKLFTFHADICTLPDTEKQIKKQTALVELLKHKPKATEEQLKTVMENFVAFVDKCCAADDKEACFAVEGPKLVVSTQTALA

Target: Bovine Serum Albumin (BSA, manufactured by Sigma-Aldrich) (bovine) (UniProt P02769)
Assay: SPR, ligand immobilised on CM5, BSA 1000 nM injected 10 min; grade D = Confirmed to be bound to BSA

- binding: binds
B1: polypeptide as set forth in SEQ ID NO: 26 (QQNAFYEI) (peptide)
peptide: QQNAFYEI
